Structures are written as SMILES. The list shows a part of the results. These are further read-outs of the screen, such as a control signal, another cell line or another target. No call is given for them.

The values below come from PubChem BioAssay AID1261 (University of Pittsburgh Molecular Library Screening Center, 2008).

For the experiment, the system named is Tyrosine-protein phosphatase YopH [Yersinia enterocolitica]. As to the kind of experiment: potency against Yersinia YopH phosphatase – biochemical, 10-point dose range, dose response (AID 1261). The settings on record: YopH phosphatase enzymatic assay, IC50, 3 runs, at 50 µM, stronger effect = higher value.
Compound `COc1ccc(N=CC2=C(Nc3ccc(OC)cc3)c3c(C)nn(-c4ccccn4)c3CC2)cc1` had an inhibition of 48.7%.

For `CN1c2ccccc2N(C)C1(C)c1ccccc1`, the inhibition was found to be 45.4%.

`O=C1C=CC(=O)C(C2=C3C(=O)N(CCc4ccccc4)CC(=O)N3CCC2)=C1` displayed an inhibition of 39.9%.

Regarding `CCN1c2ccccc2N(C)C1(C)c1ccccc1` (stereo unspecified), the inhibition amounted to 47.9%.

The compound `COc1ccccc1NC1=C(N2CCCCC2)C(=O)c2ccccc2C1=O` yielded an inhibition of 49.4%.

The compound `O=C1C2=C(c3ccccc31)[N+](=O)[C@@H]1CCCC[C@@H]1N2[O-]` returned an inhibition of 47.2%.
